For two compounds, carrier mobility results are on record in patent US20120012822A1, “AROMATIC COMPOUND AND METHOD FOR PRODUCING SAME” (KEIO UNIVERSITY, priority 2009, published 2012).

The data set can be described thus: Evaluation of field-effect type organic thin-film transistor (carrier mobility). As to conditions: Vsd −50 V.

In the case of `CC[Si](CC)(CC)CCc1c2c(c(CC[Si](CC)(CC)CC)c3ccccc13)C(=O)c1c(c(CC[Si](CC)(CC)CC)c3ccccc3c1CC[Si](CC)(CC)CC)C2=O` [5,7,12,14-tetrakis(2-(triethylsilyl)ethyl)pentacene-6,13-dione], the carrier mobility (organic semiconductor layer approx. 80 nm, 1:1 (weight) mixture with polymer TFB, spin coated from 0.5 wt % chloroform solution, Vg 0 V to −60 V, channel length 20 μm, width 2 mm) is recorded as 5.8×10^−4 cm^2/Vs.

For `CC[Si](CC)(CC)CCc1c2ccccc2c(CC[Si](CC)(CC)CC)c2cc3c(CC[Si](CC)(CC)CC)c4ccccc4c(CC[Si](CC)(CC)CC)c3cc12` [5,7,12,14-tetrakis(2-(triethylsilyl)ethyl)pentacene], the carrier mobility (compound alone, spin coated from 1 wt % chloroform solution, heated 100° C. 30 minutes in vacuum, Vg 0 V to −80 V, channel length 5 μm, width 38 mm) was 4.8×10^−6 cm^2/Vs.
